In patent US20050042747A1, “Hivgp120-induced bob/gpr15 activation” (priority 2001, published 2005):
No constants are given. Whether binding was seen depends on the method and setting. Some results given as binding are weak or reduced against the parent protein; the word gives no strength.

Amino acid sequences for entries named in this document (tags omitted). A change or cut given only in a name is not applied to a line headed by its entry.
UniProt P49685: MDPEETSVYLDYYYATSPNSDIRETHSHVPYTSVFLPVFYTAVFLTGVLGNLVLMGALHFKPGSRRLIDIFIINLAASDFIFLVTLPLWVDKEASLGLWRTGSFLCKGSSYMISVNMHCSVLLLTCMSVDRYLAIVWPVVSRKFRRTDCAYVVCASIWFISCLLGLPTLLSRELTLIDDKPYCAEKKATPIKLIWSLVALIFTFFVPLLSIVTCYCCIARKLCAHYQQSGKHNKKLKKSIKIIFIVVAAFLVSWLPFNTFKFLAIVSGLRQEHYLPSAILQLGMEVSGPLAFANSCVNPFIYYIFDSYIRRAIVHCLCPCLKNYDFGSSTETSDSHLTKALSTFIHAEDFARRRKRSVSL

Molecular target: GPR15/Bob (human) (UniProt P49685)
Assay: immunoprecipitation of gp120 that had been allowed to bind cells

For “gp120IIIB (from UniProt P03375 33-511) (ligand)”, the binding was “binds”.
